In US20130216544A1 (GEMOAB MONOCLONALS, published 2013):
No constants are given. Whether binding was seen depends on the method and setting. Some entries that bind do so weakly or less than the wild type. Where a sequence is shown, tags or fusion partners need not be part of it.

Legend:
[1] = target: T1, recombinant human La protein (rhLa), SEQ ID No. 1 with His tag (human) (UniProt P05455); assay: FACS on cells decorated with rhLa
T1 sequence: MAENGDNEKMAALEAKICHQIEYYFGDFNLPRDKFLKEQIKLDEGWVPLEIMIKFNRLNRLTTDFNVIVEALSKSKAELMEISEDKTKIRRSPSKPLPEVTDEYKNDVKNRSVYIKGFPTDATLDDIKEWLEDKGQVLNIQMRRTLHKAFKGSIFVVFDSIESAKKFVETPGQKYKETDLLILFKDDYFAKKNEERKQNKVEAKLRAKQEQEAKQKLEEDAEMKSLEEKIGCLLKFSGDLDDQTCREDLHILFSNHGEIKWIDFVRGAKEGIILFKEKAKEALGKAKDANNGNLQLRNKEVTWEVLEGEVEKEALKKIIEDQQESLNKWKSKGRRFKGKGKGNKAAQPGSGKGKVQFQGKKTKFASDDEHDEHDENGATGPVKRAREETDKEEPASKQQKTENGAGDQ

[2] = target: T1, recombinant human La protein (rhLa), SEQ ID No. 1 with His tag (human); assay: FACS on cells decorated with rhLa; 10 µg scFv, detected with anti-c-myc-FITC

B1: 7B6 scFv (scFv, not shown: small tags and cut ends)
scFv: VKLQESGGGLVQPGRPMKLSCVASGFTFSDFWMNWVRQSPEKGLEWVAQIRNKPNNYETYYSDSLKGRFTISRDDSKSSVYLQMNNLRPEDMGIYYCTLGNSWFAYWGQGTLVTVSGGGGSGGGGSGGGGSDIVITQSPSSLAVSAGEKVTMSCRSSQSLLDSRTRKNYLAWYQQKPGQSPKLLIYWASTRESGVPDRFTGSGSGTDFTLTISNVQAEDLAVYYCKQSYNLPTFGGGTKLEIHHHHHH
B1 was tested, and the binding [1] was “binds” and the binding [2] was “binds”.
